The source of these data is patent US7438933B2, “Maternal multi-nutrient against diabetes-related birth defects” (The Board of Trustees of the University of Arkansas System, priority 2004, dated 2008).

The subject of the data set is embryos of diabetic rats. As to the kind of experiment: Dietary supplementation of pregnant STZ-diabetic and non-diabetic rats; neural tube defects in E12 embryos. Format: in vivo, rat. Conditions: supplemented diet. As to the method:
To induce diabetes, 8-week-old Sprague-Dawley female rats are injected with 65 mg/kg of streptozotocin via the tail vein. Blood glucose levels are monitored daily (by tail vein puncture using a lancet) using a Prestige Smart blood glucose meter (Home Diagnostics, Fort Lauderdale, Fla.). Once a level of hyperglycemia indicative of diabetes (>250 mg/dl) is achieved, a sustained-release insulin pellet (Linplant, Linshin, Canada) will be inserted subcutaneously.
When glucose levels are restored to normal (80-150 mg/dl) and are stable for at least three continuous days, matings can be set up with male rats of the same strain. Day zero of pregnancy is established by identifying spermatozoa in vaginal smears. At designated developmental stages, insulin pellets are withdrawn to generate hyperglycemia in the pregnant rats. A group of control rats will continuously receive insulin during the course of the experiment. Glucose levels and maternal weight are continuously monitored during the pregnancy. Since it has already been shown that there is no difference in embryonic development between streptozotocin/insulin-treated and non-streptozotocin-treated animals, the streptozotocin/insulin-treated groups are used as an equivalent of non-diabetic control. At the end of the experiment, rats are euthanized and embryos dissected out of the uterus for examination and analysis. At least four pregnant rats are included in each group, from which 40-60 embryos can be obtained for examination. For each type of study, at least three replicate experiments will be carried out.
To investigate the effects of maternal hyperglycemia on embryonic malformations, the investigators employed a rat model that induces diabetes by streptozotocin (STZ). Subcutaneously implanted insulin pellets maintained euglycemia at the time of mating. On day 4 of pregnancy, the insulin pellets were removed, and the developing embryos were exposed to hyperglycemia during organogenesis (days 9-12). To maintain a euglycemic control, insulin pellets were retained in the body during the entire experimental course. On day 12, both sets of rats were euthanized, embryos were dissected out of the uteri for examination, and each embryo's yolk sac was collected for biochemical and molecular analyses.
After removal from the dams, embryos were examined under a dissecting microscope and assessed for morphological malformations in a number of categories to determine the effects of maternal hyperglycemia. […]
At E12, embryos were dissected out of uteri and evaluated for neural tube defects (NTDs), which were used as a measure of malformation rates.

Turning to `Cc1c(C)c2c(c(C)c1O)CC[C@@](C)(CCC[C@H](C)CCC[C@H](C)CCCC(C)C)O2` [vitamin E, α-tocopherol], the “Glucose level (mg/dl) ± SD” value turned out to be 348 ± 59 mg/dL (diabetic rats) and 89.2 ± 14 mg/dL (non-diabetic rats).
For `CCCCC/C=C\C/C=C\C/C=C\C/C=C\CCCC(=O)O` [arachidonic acid], the “Glucose level (mg/dl) ± SD” value reads like this: (diabetic rats) 351 ± 48 mg/dL; (non-diabetic rats) 144 ± 24 mg/dL.
